For experiment [1], the target named is endogenous p62 (p62/SQSTM1) of HEK293T cells (human (endogenous in HEK293T)) (UniProt Q13501). The experiment in a line: co-IP; endogenous TIP60 with p62 from HEK293T cells; NP-40 buffer.
The next experiment addresses Flag-tagged HDAC6 (UniProt Q9UBN7). The experiment in a line: co-IP; HA- or Flag-tagged enzyme expressed in HEK293T cells and immunoprecipitated with anti-HA or anti-Flag; endogenous p62 detected with anti-p62; NP-40 buffer, 4 °C overnight.
Another experiment concerns the target HA-TIP60 (UniProt Q92993). The description is as above.

By UniProt entry, the sequences of proteins in these tests, tags left out.
UniProt Q9UBN7: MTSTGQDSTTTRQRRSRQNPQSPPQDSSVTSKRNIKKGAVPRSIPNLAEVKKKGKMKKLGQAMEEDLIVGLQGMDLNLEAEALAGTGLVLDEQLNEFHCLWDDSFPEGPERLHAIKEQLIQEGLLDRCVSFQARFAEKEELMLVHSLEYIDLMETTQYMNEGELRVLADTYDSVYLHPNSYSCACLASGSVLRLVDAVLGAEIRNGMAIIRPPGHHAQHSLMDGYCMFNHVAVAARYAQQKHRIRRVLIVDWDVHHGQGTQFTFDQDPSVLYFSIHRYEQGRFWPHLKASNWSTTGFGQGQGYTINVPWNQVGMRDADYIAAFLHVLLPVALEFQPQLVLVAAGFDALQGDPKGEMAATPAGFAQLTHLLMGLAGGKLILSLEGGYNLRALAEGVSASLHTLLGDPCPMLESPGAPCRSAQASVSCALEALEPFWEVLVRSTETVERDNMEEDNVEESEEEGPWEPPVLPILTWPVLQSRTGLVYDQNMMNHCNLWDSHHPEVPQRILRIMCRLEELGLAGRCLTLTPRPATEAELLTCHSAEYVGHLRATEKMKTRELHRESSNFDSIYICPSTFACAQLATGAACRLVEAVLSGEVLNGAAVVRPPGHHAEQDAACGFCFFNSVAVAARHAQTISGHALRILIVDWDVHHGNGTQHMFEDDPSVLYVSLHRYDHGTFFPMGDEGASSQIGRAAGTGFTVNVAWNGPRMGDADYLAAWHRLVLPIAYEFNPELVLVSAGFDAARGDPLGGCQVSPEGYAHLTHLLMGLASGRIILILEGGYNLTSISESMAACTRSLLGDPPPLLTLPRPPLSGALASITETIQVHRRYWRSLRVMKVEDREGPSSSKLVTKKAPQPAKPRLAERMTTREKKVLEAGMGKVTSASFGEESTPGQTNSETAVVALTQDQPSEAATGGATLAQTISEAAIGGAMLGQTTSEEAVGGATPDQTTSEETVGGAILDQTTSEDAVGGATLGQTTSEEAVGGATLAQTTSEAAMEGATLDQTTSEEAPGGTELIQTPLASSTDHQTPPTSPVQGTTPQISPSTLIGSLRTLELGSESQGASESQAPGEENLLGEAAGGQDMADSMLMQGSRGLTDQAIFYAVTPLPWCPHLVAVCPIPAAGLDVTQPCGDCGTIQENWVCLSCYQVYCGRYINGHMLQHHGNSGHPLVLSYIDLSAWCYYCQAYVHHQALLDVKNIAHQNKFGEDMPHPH

No constants are given. Whether binding was seen depends on the method and setting. In cells and extracts the contact can be indirect. Some results given as binding are weak or reduced against the parent protein; the word gives no strength.

For the substance “endogenous TIP60 of HEK293T cells (from UniProt Q92993 1-513) (enzyme)”, the binding entry in experiment [1] is on record as “binds”. For the substance “endogenous p62 (p62/SQSTM1) of HEK293T cells (from UniProt Q13501 1-440)”, the binding entry with Flag-tagged HDAC6 and with HA-TIP60 was “binds” in each case.

The record behind these values is paper PMC6923396.
